# Structures can show the parent of a compound that is named as a salt. This is one part of the list. Single values are uncertain here, since repeats match poorly.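 Human fetal ventral-midbrain neural progenitor line ReNCell VM, differentiated without mitogens. Images stained for doublecortin (early neurons) or tyrosine hydroxylase (dopaminergic neurons) were scored by blinded raters against untreated wells (0 = no change). Repeats and both raters were averaged, and compounds averaging 2 or higher were picked as hits for retesting.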
# Assays:
# ReNCell VM [1] = experiment: neuronal differentiation score (DCX+ cell fraction vs untreated, manual image score) (score (-3 to 3)); higher = more neuronal differentiation; details: 2 uM, 2 weeks
# ReNCell VM [2] = experiment: dopaminergic neuron differentiation score (TH+ cell fraction vs untreated, manual image score) (score (0 to 3)); higher = more TH+ dopaminergic neuron differentiation; details: 2 uM, 4 weeks, BDNF 10 ng/ml + GDNF 10 ng/ml
smiles,measurement,setting,value
CO/N=C(\C(=O)N[C@@H]1C(=O)N2C(C(=O)O)=C(COC(C)=O)CS[C@H]12)c1csc(N)n1,neuronal differentiation score,ReNCell VM [1]; library: Spectrum,inactive: 0
same,dopaminergic neuron differentiation score,ReNCell VM [2]; library: Spectrum,inactive: 0
CC1=C(/C=C/C(C)=C/C=C/C(C)=C\C(=O)O)C(C)(C)CCC1,neuronal differentiation score,ReNCell VM [1]; library: Spectrum,inactive: 0
same,dopaminergic neuron differentiation score,ReNCell VM [2]; library: Spectrum,inactive: 0
COc1nc(C)nc(Cl)c1NC1=NCCN1 [Moxonidine],neuronal differentiation score,ReNCell VM [1]; library: Prestwick,inactive: 0
same,dopaminergic neuron differentiation score,ReNCell VM [2]; library: Prestwick,inactive: 0
CCN(CC)C(=O)/C(C#N)=C/c1cc(O)c(O)c([N+](=O)[O-])c1,neuronal differentiation score,ReNCell VM [1]; library: Spectrum,inactive: 0
same,dopaminergic neuron differentiation score,ReNCell VM [2]; library: Spectrum,inactive: 0
"COc1cc2c(cc1OC)C(c1ccccc1)=NCC2 [6,7-dimethoxy-1-phenyl-3,4-dihydro-isoquinoline]",neuronal differentiation score,ReNCell VM [1]; library: Natural,inactive: 0
same,dopaminergic neuron differentiation score,ReNCell VM [2]; library: Natural,inactive: 0
CC(=O)Oc1ccc2c(c1C(C)C)CCC1C(C)(C)CCC[C@]21C (stereo partly drawn),neuronal differentiation score,ReNCell VM [1]; library: Spectrum,inactive: 0
same,dopaminergic neuron differentiation score,ReNCell VM [2]; library: Spectrum,inactive: 0
Nc1nc(N)nc(-c2cc(Cl)ccc2Cl)n1,neuronal differentiation score,ReNCell VM [1]; library: Spectrum,inactive: 0
same,dopaminergic neuron differentiation score,ReNCell VM [2]; library: Spectrum,inactive: 0
COc1ccc(C(=O)c2coc3ccc(O)cc23)cc1 [(5-hydroxy-benzofuran-3-yl)-(4-methoxy-phenyl)-methanone],neuronal differentiation score,ReNCell VM [1]; library: Natural,inactive: 0
same,dopaminergic neuron differentiation score,ReNCell VM [2]; library: Natural,inactive: 0
"COc1ccc(C=CC(=O)C=Cc2ccc(OC)cc2OC)c(OC)c1 [1,5-bis-(2,4-dimethoxy-phenyl)-penta-1,4-dien-3-one]",neuronal differentiation score,ReNCell VM [1]; library: Natural,inactive: 0
same,dopaminergic neuron differentiation score,ReNCell VM [2]; library: Natural,inactive: 0
COc1ccc2[nH]c3c(C)c4ccncc4c(C)c3c2c1 [9-Methoxyellipticine],neuronal differentiation score,ReNCell VM [1]; library: Phytochemical,inactive: 0
same,dopaminergic neuron differentiation score,ReNCell VM [2]; library: Phytochemical,inactive: 0
O=C(O)c1cc(=O)cc(C(=O)O)o1 [Chelidonic acid],neuronal differentiation score,ReNCell VM [1]; library: Phytochemical,inactive: 0
same,dopaminergic neuron differentiation score,ReNCell VM [2]; library: Phytochemical,inactive: 0
Oc1c(Br)cc(Br)c2cccnc12,neuronal differentiation score,ReNCell VM [1]; library: Spectrum,inactive: 0
same,dopaminergic neuron differentiation score,ReNCell VM [2]; library: Spectrum,inactive: 0
CSCC[C@H](NC(=O)[C@H](Cc1c[nH]c2ccccc12)NC(=O)CCNC(=O)OC(C)(C)C)C(=O)N[C@@H](CC(=O)O)C(=O)N[C@@H](Cc1ccccc1)C(N)=O,neuronal differentiation score,ReNCell VM [1]; library: Spectrum,inactive: 0
same,dopaminergic neuron differentiation score,ReNCell VM [2]; library: Spectrum,inactive: 0
"CC(=O)/C(C)=N/O [2,3-Butanedione monoxime]",neuronal differentiation score,ReNCell VM [1]; library: LOPAC,inactive: 0
same,dopaminergic neuron differentiation score,ReNCell VM [2]; library: LOPAC,inactive: 1
S=c1ccss1,neuronal differentiation score,ReNCell VM [1]; library: Spectrum,inactive: 0
same,dopaminergic neuron differentiation score,ReNCell VM [2]; library: Spectrum,inactive: 0
COc1cccc(N(C)C(=S)Oc2ccc3c(c2)CCCC3)n1 [Liranaftate],neuronal differentiation score,ReNCell VM [1]; library: Prestwick,inactive: 0
same,dopaminergic neuron differentiation score,ReNCell VM [2]; library: Prestwick,inactive: 0
c1ccc2[nH]c(-c3cscn3)nc2c1 [Tiabendazole],neuronal differentiation score,ReNCell VM [1]; library: Prestwick,inactive: 0
same,dopaminergic neuron differentiation score,ReNCell VM [2]; library: Prestwick,inactive: 0
CN1CCc2cccc3c2[C@H]1Cc1ccc(O)c(O)c1-3,neuronal differentiation score,ReNCell VM [1]; library: Spectrum,inactive: 0
same,dopaminergic neuron differentiation score,ReNCell VM [2]; library: Spectrum,inactive: 1
N[C@@H]1CONC1=O [D-cycloserine],neuronal differentiation score,ReNCell VM [1]; library: Prestwick,inactive: 0
same,dopaminergic neuron differentiation score,ReNCell VM [2]; library: Prestwick,inactive: 0
"CCCn1c(=O)c2[nH]c(C3CCCC3)nc2n(CCC)c1=O [8-Cyclopentyl-1,3-dipropylxanthine]",neuronal differentiation score,ReNCell VM [1]; library: LOPAC,inactive: -1
same,dopaminergic neuron differentiation score,ReNCell VM [2]; library: LOPAC,inactive: 0
CCCC[C@@H](C=O)NC(=O)[C@H](CC(C)C)NC(=O)OCc1ccccc1 [Calpeptin],neuronal differentiation score,ReNCell VM [1]; library: Tocriscreen,inactive: 0
same,dopaminergic neuron differentiation score,ReNCell VM [2]; library: Tocriscreen,inactive: 0
O=C(Nc1ccccc1)C12CC1C(=NO)c1ccccc1O2 (stereo not drawn),neuronal differentiation score,ReNCell VM [1]; library: Tocriscreen,inactive: 0
same,dopaminergic neuron differentiation score,ReNCell VM [2]; library: Tocriscreen,inactive: 0
CC(=O)O[C@@]12CO[C@@H]1C[C@H](O)[C@@]1(C)C(=O)[C@H](O)C3=C(C)[C@@H](OC(=O)[C@H](O)[C@@H](NC(=O)OC(C)(C)C)c4ccccc4)C[C@@](O)([C@@H](OC(=O)c4ccccc4)[C@H]21)C3(C)C,neuronal differentiation score,ReNCell VM [1]; library: Spectrum,inactive: 0
same,dopaminergic neuron differentiation score,ReNCell VM [2]; library: Spectrum,inactive: 0
C(=C\c1ccccc1)/CN1CCN(C(c2ccccc2)c2ccccc2)CC1,neuronal differentiation score,ReNCell VM [1]; library: Spectrum,inactive: 0
same,dopaminergic neuron differentiation score,ReNCell VM [2]; library: Spectrum,inactive: 0
CCCCCCCCCC(=O)N[C@@H](Cc1c[nH]c2ccccc12)C(=O)N[C@@H](CC(N)=O)C(=O)N[C@@H](CC(=O)O)C(=O)N[C@@H]1C(=O)NCC(=O)N[C@@H](CCCN)C(=O)N[C@@H](CC(=O)O)C(=O)N[C@H](C)C(=O)N[C@@H](CC(=O)O)C(=O)NCC(=O)N[C@H](CO)C(=O)N[C@@H]([C@H](C)CC(=O)O)C(=O)N[C@@H](CC(=O)c2ccccc2N)C(=O)O[C@@H]1C [DAPTOMYCIN (5 millimolar/DMSO)],neuronal differentiation score,ReNCell VM [1]; library: Spectrum,inactive: 0
same,dopaminergic neuron differentiation score,ReNCell VM [2]; library: Spectrum,inactive: 0
CC(C)(C#N)c1cc(Cn2cncn2)cc(C(C)(C)C#N)c1,neuronal differentiation score,ReNCell VM [1]; library: Spectrum,inactive: 0
same,dopaminergic neuron differentiation score,ReNCell VM [2]; library: Spectrum,inactive: 0
COc1cc(C=CC(=O)O)cc(OC)c1O,neuronal differentiation score,ReNCell VM [1]; library: Spectrum,inactive: 0
same,dopaminergic neuron differentiation score,ReNCell VM [2]; library: Spectrum,inactive: 0
CN(CCc1ccc(Cl)c(Cl)c1)CC(O)COc1ccc(NS(C)(=O)=O)cc1 (stereo not drawn),neuronal differentiation score,ReNCell VM [1]; library: Tocriscreen,inactive: 0
same,dopaminergic neuron differentiation score,ReNCell VM [2]; library: Tocriscreen,inactive: 0
"O=C(O)COc1ccc(OCCNC[C@H](O)COc2ccccc2)cc1 [ICI 215,001 hydrochloride]",neuronal differentiation score,ReNCell VM [1]; library: Tocriscreen,inactive: 0
same,dopaminergic neuron differentiation score,ReNCell VM [2]; library: Tocriscreen,inactive: 0
